This note sets out measurements from article PMC12029333.

No constants are given. Whether binding was seen depends on the method and setting. In cells and extracts the contact can be indirect. These calls come from enrichment with a bait or labelling near it, and not all partners need be listed. Tags and fused reporters may be left off the sequences shown.

The experiment deals with T1, GST-PrkC (Serine/threonine-protein kinase PrkC) (Bacillus subtilis str. 168) (UniProt O34507).
T1 sequence: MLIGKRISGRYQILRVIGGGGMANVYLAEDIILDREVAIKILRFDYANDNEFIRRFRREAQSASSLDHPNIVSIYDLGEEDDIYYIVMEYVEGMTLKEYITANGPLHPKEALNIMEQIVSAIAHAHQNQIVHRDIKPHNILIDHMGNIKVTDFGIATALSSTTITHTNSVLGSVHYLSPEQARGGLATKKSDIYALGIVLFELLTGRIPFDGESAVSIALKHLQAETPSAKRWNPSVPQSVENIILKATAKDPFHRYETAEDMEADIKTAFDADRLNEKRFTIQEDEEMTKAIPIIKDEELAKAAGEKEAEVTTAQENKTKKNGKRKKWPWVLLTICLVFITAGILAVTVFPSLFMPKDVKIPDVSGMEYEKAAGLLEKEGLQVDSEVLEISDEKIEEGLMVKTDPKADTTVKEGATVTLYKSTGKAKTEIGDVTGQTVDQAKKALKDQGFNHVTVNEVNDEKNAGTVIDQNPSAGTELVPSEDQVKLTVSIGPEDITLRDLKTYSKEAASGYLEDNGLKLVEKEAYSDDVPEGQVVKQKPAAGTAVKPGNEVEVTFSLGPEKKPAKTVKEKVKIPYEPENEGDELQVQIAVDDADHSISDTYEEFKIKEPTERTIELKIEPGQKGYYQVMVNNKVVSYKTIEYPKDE
Briefly: affinity purification with mass spectrometry; GST-PrkC on glutathione resin incubated with B. subtilis spore lysate at 4 °C; resin washed; bound proteins eluted with 20 mM reduced glutathione; eluate digested with trypsin and analysed by LC-MS/MS; hits filtered at 1% FDR, >=2 unique peptides; only the target purified.

B1: Tryptophan RNA-binding attenuator protein inhibitory protein (protein, UniProt O31466 1-53)
chain: MVIATDDLEVACPKCERAGEIEGTPCPACSGKGVILTAQGYTLLDFIQKHLNK
For B1, the binding result is given as “binds”.

B2: Nuclease SbcCD subunit C (protein, UniProt O06714 1-1130)
chain: MKPIALSIKGLHSFREEQTIDFEGLSGAGVFGIFGPTGSGKSSILDAMTLALYGKVERAANNTHGILNHAEDTLSVSFTFALQTNHQISYKVERVFKRTDEMKVKTALCRFIEIKDEHTVLADKASEVNKRVEELLGLTIDDFTRAVVLPQGKFAEFLSLKGAERRHMLQRLFNLEQYGDRLVKKLRRQAQEANARKNEMLAEQSGLGEASSEAVEQAEKVLEQAEARLEAMRKNRDQAKERFTEHQEIWNVQKEKSTYEEEEKRLAEEQPHIDSMQKRLLEAETAAALKPYADRYAEAIQHEEQAEKEQTLAQKDLADRTAFFQQKHEEYEAWRQHKSEKEPELLAKQEQLSRLQEIEIKLSEAKQEEERKKADLRQKEEALQSVMNELETVTDRLTRGQNRQTELKQQLKSLQVTSDERKSCQQAAEMALRIRQTEEQIKKEKKRSEELNLVLQKMNEEKNTLVQKTEAEENNIIQAYEAVQTVYHLVCETERSLTRMTEEARKSQHTLHLQREKARVALLTKELAQKLTAGKPCPVCGSTDHDPSASVHETYEADSHLEEDIKRTDVLLTEAAALSQEILSAKIMLEEQSARFIEQCPFLQTIQAQNLEAAASFEHQPVYEAFETAKFEWKRIKQDILSVKTRMAQMIGAYQESLKKAEQLNEKIGFEKREADRIESIISELQSSMDSSLNMFKEAFQNQSVDEAEKWQQAIEEKDRAAEECEKRIEKSIAFLAEHEAQKEKLRESGHRLEREKLELHYAAERIKSVIADYEHELGDYAKGDSIQIKLRSVQQDLKLLKEKEQSLYEELQSAQMKLNQAKSRASASELTLQEAKGRLEKAKAAWLEHTKNTSITRTEEVEQSLIPADELEKMKTGIDQFMDKLKQNAANLKRVAEILAGRALSESEWNETVAALQEAEDAFGAAIEEKGAAAKALAVIRDHHKRFNEIEAELKKWQMHIDRLDKLQAVFKGNTFVEFLAEEQLESVARDASARLSMLTRQRYAIEVDSEGGFVMRDDANGGVRRPVSSLSGGETFLTSLSLALALSAQIQLRGEYPLQFFFLDEGFGTLDQDLLDTVVTALEKLQSDNLAVGVISHVQELRARLPKKLIVHPAEPSGRGTRVSLELM
B2: the binding result is on record as “binds”.

B3: Transcription termination factor Rho (protein, UniProt Q03222 1-427)
chain: MKDVSISSLENMKLKELYELARHYKISYYSKLTKKELIFAILKANAEQEDLLFMEGVLEIIQSEGFGFLRPINYSPSSEDIYISASQIRRFDLRNGDKVSGKVRPPKENERYYGLLHVEAVNGDDPESAKERVHFPALTPLYPDRQMVLETKPNFLSTRIMDMMAPVGFGQRGLIVAPPKAGKTMLLKEIANSITANQPEAELIVLLIDERPEEVTDIERSVAGDVVSSTFDEVPENHIKVAELVLERAMRLVEHKKDVIILMDSITRLARAYNLVIPPSGRTLSGGIDPAAFHRPKRFFGAARNIEEGGSLTILATALVDTGSRMDDVIYEEFKGTGNMELHLDRSLAERRIFPAIDIRRSGTRKEELLVPKEHLDRLWSIRKTMSDSPDFAEKFMRKMKKTKTNQEFFDILNQEWKQANLSSARR
As for B3, the binding entry is on record as “binds”.
